From PMC8278045

Amino acid sequences for entries named in this document (tags omitted). A change or cut given only in a name is not applied to a line headed by its entry.
UniProt Q31NL7: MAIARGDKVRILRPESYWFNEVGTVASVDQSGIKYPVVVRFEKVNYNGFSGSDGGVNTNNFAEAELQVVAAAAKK
UniProt Q31KS4: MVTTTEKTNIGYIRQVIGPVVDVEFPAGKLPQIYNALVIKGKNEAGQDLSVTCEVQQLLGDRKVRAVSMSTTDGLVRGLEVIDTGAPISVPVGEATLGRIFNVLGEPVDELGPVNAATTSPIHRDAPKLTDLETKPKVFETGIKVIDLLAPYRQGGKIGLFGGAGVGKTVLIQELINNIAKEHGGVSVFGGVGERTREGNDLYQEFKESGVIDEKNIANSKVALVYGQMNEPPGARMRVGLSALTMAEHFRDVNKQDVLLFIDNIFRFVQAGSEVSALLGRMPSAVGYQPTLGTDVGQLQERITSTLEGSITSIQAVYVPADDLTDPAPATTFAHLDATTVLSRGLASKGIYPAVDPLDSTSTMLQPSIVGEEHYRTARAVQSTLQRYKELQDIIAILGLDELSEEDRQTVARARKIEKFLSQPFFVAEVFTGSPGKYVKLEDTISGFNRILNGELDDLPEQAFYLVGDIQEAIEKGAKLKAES
UniProt Q31NV8: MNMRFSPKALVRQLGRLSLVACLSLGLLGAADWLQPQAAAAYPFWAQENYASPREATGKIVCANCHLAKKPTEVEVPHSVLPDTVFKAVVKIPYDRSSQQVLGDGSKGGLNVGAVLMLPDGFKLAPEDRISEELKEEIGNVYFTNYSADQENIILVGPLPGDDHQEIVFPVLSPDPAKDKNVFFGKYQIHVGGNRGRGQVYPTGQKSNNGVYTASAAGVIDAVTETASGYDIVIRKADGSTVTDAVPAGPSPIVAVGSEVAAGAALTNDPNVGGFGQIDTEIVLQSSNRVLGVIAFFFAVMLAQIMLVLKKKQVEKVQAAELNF
UniProt P31094: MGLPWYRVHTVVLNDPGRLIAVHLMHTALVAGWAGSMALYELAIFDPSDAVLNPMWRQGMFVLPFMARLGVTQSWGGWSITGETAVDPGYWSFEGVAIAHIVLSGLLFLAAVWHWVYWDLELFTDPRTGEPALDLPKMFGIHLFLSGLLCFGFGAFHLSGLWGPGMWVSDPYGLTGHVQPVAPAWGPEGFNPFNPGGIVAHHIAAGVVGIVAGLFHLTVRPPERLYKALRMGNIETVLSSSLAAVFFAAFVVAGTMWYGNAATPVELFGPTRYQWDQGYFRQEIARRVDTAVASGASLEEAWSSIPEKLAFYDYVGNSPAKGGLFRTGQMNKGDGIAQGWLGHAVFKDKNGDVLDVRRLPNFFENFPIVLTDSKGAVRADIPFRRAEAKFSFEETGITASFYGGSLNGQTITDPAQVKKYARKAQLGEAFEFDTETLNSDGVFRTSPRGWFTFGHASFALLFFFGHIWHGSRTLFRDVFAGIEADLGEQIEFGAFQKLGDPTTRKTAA
UniProt Q31NJ6: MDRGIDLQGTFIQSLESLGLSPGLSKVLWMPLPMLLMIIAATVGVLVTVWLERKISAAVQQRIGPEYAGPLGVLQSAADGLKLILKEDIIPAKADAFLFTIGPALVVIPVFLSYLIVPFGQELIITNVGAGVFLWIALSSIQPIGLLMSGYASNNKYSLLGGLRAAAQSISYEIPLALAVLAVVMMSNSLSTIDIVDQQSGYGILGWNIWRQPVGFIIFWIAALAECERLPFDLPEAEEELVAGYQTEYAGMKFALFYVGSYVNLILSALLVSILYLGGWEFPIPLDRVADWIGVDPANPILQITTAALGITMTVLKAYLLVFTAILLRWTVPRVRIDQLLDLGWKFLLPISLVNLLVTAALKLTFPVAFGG
UniProt Q31M07: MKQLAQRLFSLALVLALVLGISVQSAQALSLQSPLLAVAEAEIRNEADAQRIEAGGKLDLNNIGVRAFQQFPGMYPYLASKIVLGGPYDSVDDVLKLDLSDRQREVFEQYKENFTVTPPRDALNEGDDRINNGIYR
UniProt P39660: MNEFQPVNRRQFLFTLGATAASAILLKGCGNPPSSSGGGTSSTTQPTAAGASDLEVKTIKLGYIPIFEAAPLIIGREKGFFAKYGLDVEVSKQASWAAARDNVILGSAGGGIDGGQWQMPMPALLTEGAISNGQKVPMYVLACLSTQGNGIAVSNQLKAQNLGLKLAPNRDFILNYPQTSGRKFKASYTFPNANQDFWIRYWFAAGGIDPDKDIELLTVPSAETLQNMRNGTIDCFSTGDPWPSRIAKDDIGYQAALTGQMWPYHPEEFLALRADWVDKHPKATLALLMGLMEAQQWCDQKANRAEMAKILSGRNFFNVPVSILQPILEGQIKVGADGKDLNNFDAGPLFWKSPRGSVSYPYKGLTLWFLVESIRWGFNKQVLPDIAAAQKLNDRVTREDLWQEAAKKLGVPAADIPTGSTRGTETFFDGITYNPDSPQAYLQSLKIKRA

B1: PsbV (protein, UniProt Q31LM9 31-167)
chain: AELTAETRTVKLNPQGDNVTLSLKQVAEGKQLFAYACGQCHVGGITKTDPNVGLDPEALALATPPRDSVESLVDYLHNPTTYDGEREISELHPSTKSTDIFPKMRNLTEDDLVAISGHILLQPKIVGTKWGGGKIYY
B2: PetM (peptide, UniProt Q31KG3 1-37)
chain: MAGEIFGTAFLFIVLVPVGLALGAFLLKVQGVQKAEK
B3: NdhM (protein, UniProt Q31LQ7 1-110)
chain: MLLKSTTRHIRIFTAEIEGNELQPSDTVLTLDVDPDNEFNWNEEALQKVYRQFDDLVESYAGQELSEYNLRRIGSELEVLLRQMLQAGEISYNLNCRVLNYSMGVPQAVV
B4: NdhN (protein, UniProt Q31L05 1-158)
chain: MALITTGSKFLRALEQEGALAVYAPLEGGYEGRYLRRLRSKGYSALTYSARGLGDPAQFLMDIHGVRPPHLGKQTIGNEAAVGRVEYVLPLVGYPLQNLPANAKGLVLWLLEGHVLSPQELSYFVTLPQAEPRLKVVIEMGGDRGFSWQPLAAVAEAA
B5: chromosome partition protein Smc (protein, UniProt Q31LJ4 1-1195)
chain: MVYIKQIELSHFKSFGGTTSLPLLPEFTVVTGPNGSGKSNILDALLFALGLSSSKGMRADRLPDLVNSTYASRSRSTVETLVTVTFALDDWQPEAEETEEGEGTGLQPGMAEWTVSRKLRVTPSGTYTSTYAMNGEACTLQQLHEQLSRLRIYPEGYNVVLQGDVTNIISMSPRDRRQIIDELAGVAQFDRKIEQAKGKLEAVKEREDRCRIVEQELIEQRDRLAKDREKAQKYQALRQEQATKQSWEAVLRWRAGQRQVQALQRSLAQLATDAATDQQTQQTLEQQIQQTEATLDRLNQRVKALGEEELLKLQAALAQQEAEQRQSQRQQQELVESQTQTQQQIQALLQTQAQLQTEGQQQAEQARTLQTTIAQTLQPQYQQALEQVEAARQSAHALAAQSQDWVTRQTSLRQQADAIAAQVEPQRAEQAQLQERQTQLQQQLEATQSALVTVTAELETETEQAEGDRAALSQAEAAVVTAADQLVRLEEELQIQQETRDRLLKEQRDKQRQLDRQESLRQAMQETQGTAAARLILDTGLPGVHGLVAQLGRVEPRYQLALEVAAGGRLGYLVVDDDGVASAGIELLKQKKAGRITFLPLNRIRAGKQPEIPRWQQPEGLVDLAIALVDCDDRYREVFKFVLGGTVVFERLDQARRYMGQYRIVTLDGELLETSGAMTGGSIARRSGGLSFGSPDSGESAEVRAIRDRLEQLEVILDRSELQILNLQAAIKDAASTLSDRRQQQREQQLTVQQRQQTLQRLQQQQQQLNAELQQRQQQASQAQARLAALALELPAALKQLKTLRQALAELEDSPIHGEWQQRQTLLQQQEALLQQQETALRQAEQQLQQLQTDQKRLQERAIAAQTQVSQLRQQQGEQLNRLAQLDEQQRQQATAIAQLQQRQAQLEAQLGQEKVDRDRTERQLQEQRSQRQNLVWQQEKRQQQQQELQQQLTDLEVQLQAEQQELPQPLPDIPEMVQQQGIEALQHELRSLAKRIQAMEPVNMLALEEYERTQARLEELSEKLTTIEAERTELLLRIENFTTLRRRAFMESFEAIDRNFQEIFAHLSDGDGSLQLDNPEDPFSSGLNLIAHPKGKPVRRLASMSGGEKSLTALSFIFALQRYRPSPFYALDEVDSFLDGANVERLARVIRQQAQAAQFIVVSHRRPMIEAAERTIGVTQARGAHTQVLGIPQP
B6: PSI assembly protein Ycf4 (protein, UniProt Q31QI3 1-188)
chain: MPSPVATVETDSLQQPILGSRRPSNYFWAIAVSVGGTGLLLAGLSSYLQVNLLPFSEPTRLAFLPQGLVMGLYGIAAILLASYLWFVISLDVGGGYNAFDRKTQKATIFRWGFPGKNRRVEITYPLSDIQAVRVDIKEGLNPKRALYLKVKGRGDVPLTRVGQPLPLTELESQGAELARFLAVPLEGL
B7: chaperon protein DnaK3 (protein, UniProt P50022 1-749)
chain: MGRVVGIDLGTTNSVIAVMEGGKPMVIANAEGVRTTPSVVGVSKTGERLVGELARRQLVLNPRNTFANIKRFIGRRYDELTDESKRVPYTVRRDPEGNVRIVCPQLSREFAPEEVAAMILRKLAEEASRYLGEPVTGAVITVPAYFNDSQRQATRDAGRIAGLEVKRILNEPTAASLAYGLDRRDNQTILVFDLGGGTFDVSVLKVGNGVFEVKATSGDTQLGGNDFDRRIVDWLAEQFLEAEGIDLRRDRQALQRLIEAAEKAKIELSGVSVTDINLPFITATEDEPKHLETRLTRSEFEALCEDLLERMMRPLRRALKDARLQPQDIDEVVLVGGSTRMPMVQQLVRSLIGREPNQNVNPDEVVAIGAAIQAGILAGEVKDILLLDVTPLSLGLETIGGVMKKLIPRNTAIPVRRSDIFSTAENNQTMVEIHILQGERQLAEGNKSLGRFKLTGIPPAPRGVPQVQVSFDIDANGILQVSALDKTTGREQTVTIQGASTLSQEEVKRMMKDAELYAQQDRQLKARIEKRNRAQTLIAQSERRLREISLDFGLYFAESKRRRIESTIRELKDYLERQDDRGLDLALAELQDALFDLNQETAARLRDEEGEGFFEPLKQTFASLRGDGNRDFERSWDDRGGDRWDADPWDRSRRSTPSYGYDDRRSPVSDPYRGERWVEEQTSMSRREPVRDRNGGNGSVRPEPAPRRGRPTWEEDQPPRRDRSSQPPAKPASGRRWNDGWDDDDDEWF

Experiments:
Experiment in all cases: affinity purification with mass spectrometry; GFP pull-down (µMACS/MultiMACS GFP Isolation Kit beads) from thylakoid membranes of GFP-labelled Syn7942 strains solubilised with 1% digitonin; label-free LC-MS/MS, abundances normalised to GFP, WT strain as control, triplicates
[1] = molecular target: PsaE of Photosystem I labelled with enhanced GFP (PSI–GFP) (Synechococcus elongatus PCC 7942) (UniProt Q31NL7)
[2] = molecular target: AtpB (β) of ATPase labelled with enhanced GFP (ATPase–GFP) (Synechococcus elongatus PCC 7942) (UniProt Q31KS4)
[3] = molecular target: PetA of Cytochrome b6f labelled with enhanced GFP (Cyt b6f–GFP) (Synechococcus elongatus PCC 7942) (UniProt Q31NV8)
[4] = molecular target: PsbB (CP47) of Photosystem II labelled with enhanced GFP (PSII–GFP) (Synechococcus elongatus PCC 7942) (UniProt P31094)

| Molecule | binding [1] | binding [2] | binding [3] | binding [4] |
| --- | --- | --- | --- | --- |
| NdhA (from UniProt Q31NJ6 1-372) | binds | – | – | – |
| PsbU (from UniProt Q31M07) | binds | binds | binds | – |
| bicarbonate transporter subunit CmpA (from UniProt P39660) | binds | – | – | – |
| B1 | binds | binds | binds | – |
| B2 | binds | binds | – | binds |
| B3 | binds | – | – | – |
| B4 | binds | – | – | – |
| B5 | binds | – | – | – |
| B6 | – | – | – | binds |
| B7 | – | binds | – | – |

No constants are given. Whether binding was seen depends on the method and setting. In cells and extracts the contact can be indirect. These calls come from enrichment with a bait or labelling near it, and not all partners need be listed.
